{"source": "patent US20130040915A1", "about": "“PHARMACEUTICAL COMPOSITION” (CAPITAL, BUSINESS Y GESTION DE FINANZAS, S.L., priority 2010, published 2013)", "origin": "cited, not measured here", "settings": "pH 6.5, aqueous solution, 121 to 135° C., 2 to 3 atm, 20 to 45 min", "note": "At least one compound was matched to its structure with a doubt left."}
{"smiles": "O=P(O)(O)C(O)(Cn1ccnc1)P(=O)(O)O", "note": "[Zoledronic acid]", "values": [{"measurement": "compatibility with type I borosilicate glass", "value": "incompatible with type I borosilicate"}]}
